Data source: PubChem BioAssay AID1224830 (NIAID, 2016)
Here is an unselected part of about 18,000 deposited reagents. About 2,900 of all reagents (16%) were called active. 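Calls are made per well; low scores hint the gene aids the LPS response, high scores that it dampens it.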 Entries without a mark were called inactive. Repeated entries: four replicate wells of each siRNA pool.

Screen: 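Regulators of TLR4 signalling towards TNF-alpha in macrophage-like cells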 (primary screen)
Cell system: human THP-1 monocytic leukaemia cells, TNF dual-luciferase reporter clone, PMA-differentiated to macrophage-like cells
Reagent: siRNA pool against human genes, 50 nM
Duration: LPS for 4 h, given about 3 days after siRNA transfection
Treatment: bacterial LPS (TLR4 ligand), 10 ng/ml
Read-out: 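Ratio of firefly to renilla light, scaled to the plate median and expressed as a robust z-score per replicate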
Direction: TNF reporter robust z-score: higher = stronger TNF reporter response to LPS
Rule for the call: 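a well is active when its z-score exceeds 2.8 or falls below -1.5; control wells carry no call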

target	TNF reporter robust z-score
SELENOF (selenoprotein F)	0.14
SELENOF (selenoprotein F)	0.69
SELENOF (selenoprotein F)	0.3
SELENOF (selenoprotein F)	-0.64
SPDYE3 (speedy/RINGO cell cycle regulator family member E3)	-1.09
SPDYE3 (speedy/RINGO cell cycle regulator family member E3)	0.62
SPDYE3 (speedy/RINGO cell cycle regulator family member E3)	-0.37
SPDYE3 (speedy/RINGO cell cycle regulator family member E3)	0.79
IRAK1BP1 (interleukin 1 receptor associated kinase 1 binding protein 1)	-0.08
IRAK1BP1 (interleukin 1 receptor associated kinase 1 binding protein 1)	-0.09
IRAK1BP1 (interleukin 1 receptor associated kinase 1 binding protein 1)	0.34
IRAK1BP1 (interleukin 1 receptor associated kinase 1 binding protein 1)	0.91
INKA2 (inka box actin regulator 2)	-1.11
INKA2 (inka box actin regulator 2)	-0.64
INKA2 (inka box actin regulator 2)	-0.93
INKA2 (inka box actin regulator 2)	-0.54
DCC (DCC netrin 1 receptor)	3.4 (active)
DCC (DCC netrin 1 receptor)	1.31
DCC (DCC netrin 1 receptor)	1.01
DCC (DCC netrin 1 receptor)	0.14
FZD5 (frizzled class receptor 5)	-0.54
FZD5 (frizzled class receptor 5)	-0.27
FZD5 (frizzled class receptor 5)	-1.06
FZD5 (frizzled class receptor 5)	-0.15
RPS13 (ribosomal protein S13)	-0.79
RPS13 (ribosomal protein S13)	1.17
RPS13 (ribosomal protein S13)	0.26
RPS13 (ribosomal protein S13)	0.77
CCL5 (C-C motif chemokine ligand 5)	0.1
CCL5 (C-C motif chemokine ligand 5)	-0.4
CCL5 (C-C motif chemokine ligand 5)	0.07
CCL5 (C-C motif chemokine ligand 5)	1.12
DSG2 (desmoglein 2)	-1.84 (active)
DSG2 (desmoglein 2)	-0.93
DSG2 (desmoglein 2)	-1.75 (active)
DSG2 (desmoglein 2)	-0.84
CCT7 (chaperonin containing TCP1 subunit 7)	1.09
CCT7 (chaperonin containing TCP1 subunit 7)	0.91
CCT7 (chaperonin containing TCP1 subunit 7)	0.42
CCT7 (chaperonin containing TCP1 subunit 7)	1.43
E2F5 (E2F transcription factor 5)	-0.65
E2F5 (E2F transcription factor 5)	-0.93
E2F5 (E2F transcription factor 5)	-0.26
E2F5 (E2F transcription factor 5)	0.57
EYA2 (EYA transcriptional coactivator and phosphatase 2)	0.84
EYA2 (EYA transcriptional coactivator and phosphatase 2)	2.62
EYA2 (EYA transcriptional coactivator and phosphatase 2)	2.07
EYA2 (EYA transcriptional coactivator and phosphatase 2)	-0.34
NUF2 (NUF2 component of NDC80 kinetochore complex)	0.52
NUF2 (NUF2 component of NDC80 kinetochore complex)	1.71
NUF2 (NUF2 component of NDC80 kinetochore complex)	-0.4
NUF2 (NUF2 component of NDC80 kinetochore complex)	0.31
CDY2B (chromodomain Y-linked 2B)	0.12
CDY2B (chromodomain Y-linked 2B)	0.06
CDY2B (chromodomain Y-linked 2B)	-1.3
CDY2B (chromodomain Y-linked 2B)	-1.28
RFC4 (replication factor C subunit 4)	-0.33
RFC4 (replication factor C subunit 4)	0.08
RFC4 (replication factor C subunit 4)	0.03
RFC4 (replication factor C subunit 4)	0.88
TNFRSF6B (TNF receptor superfamily member 6b)	2.49
TNFRSF6B (TNF receptor superfamily member 6b)	3.12 (active)
TNFRSF6B (TNF receptor superfamily member 6b)	0.99
TNFRSF6B (TNF receptor superfamily member 6b)	1.56
OR7C1 (olfactory receptor family 7 subfamily C member 1)	0.21
OR7C1 (olfactory receptor family 7 subfamily C member 1)	0.18
OR7C1 (olfactory receptor family 7 subfamily C member 1)	0.54
OR7C1 (olfactory receptor family 7 subfamily C member 1)	0.37
RABL2B (RAB, member of RAS oncogene family like 2B)	-1.09
RABL2B (RAB, member of RAS oncogene family like 2B)	0.06
RABL2B (RAB, member of RAS oncogene family like 2B)	-0.82
RABL2B (RAB, member of RAS oncogene family like 2B)	-1.18
POU6F1 (POU class 6 homeobox 1)	-0.43
POU6F1 (POU class 6 homeobox 1)	1.18
POU6F1 (POU class 6 homeobox 1)	1.26
POU6F1 (POU class 6 homeobox 1)	-0.06
CYSTM1 (cysteine rich transmembrane module containing 1)	-0.1
CYSTM1 (cysteine rich transmembrane module containing 1)	-0.36
CYSTM1 (cysteine rich transmembrane module containing 1)	-0.78
SLC25A48	0.45
SLC25A48	0.18
SLC25A48	-0.97
SLC25A48	0.23
SUV39H1 (SUV39H1 histone lysine methyltransferase)	-1.32
SUV39H1 (SUV39H1 histone lysine methyltransferase)	-1.08
SUV39H1 (SUV39H1 histone lysine methyltransferase)	-1.21
SUV39H1 (SUV39H1 histone lysine methyltransferase)	-0.41
TOX4 (TOX high mobility group box family member 4)	-1.05
TOX4 (TOX high mobility group box family member 4)	-0.88
TOX4 (TOX high mobility group box family member 4)	0.25
TOX4 (TOX high mobility group box family member 4)	-0.35

Continued:
target	TNF reporter robust z-score
LINC01559 (long independently transcribed non-coding RNA 1559)	0.21
LINC01559 (long independently transcribed non-coding RNA 1559)	0.69
LINC01559 (long independently transcribed non-coding RNA 1559)	-0.43
LINC01559 (long independently transcribed non-coding RNA 1559)	1.13
NRM (nurim)	1.25
NRM (nurim)	-0.3
NRM (nurim)	-0.34
NRM (nurim)	-0.13
PTPN14 (protein tyrosine phosphatase non-receptor type 14)	1.02
PTPN14 (protein tyrosine phosphatase non-receptor type 14)	0.8
PTPN14 (protein tyrosine phosphatase non-receptor type 14)	0.4
PTPN14 (protein tyrosine phosphatase non-receptor type 14)	1.85
VAV1 (vav guanine nucleotide exchange factor 1)	-0.26
VAV1 (vav guanine nucleotide exchange factor 1)	1.11
VAV1 (vav guanine nucleotide exchange factor 1)	0.4
VAV1 (vav guanine nucleotide exchange factor 1)	0.7
SAMM50 (SAMM50 sorting and assembly machinery component)	-0.72
SAMM50 (SAMM50 sorting and assembly machinery component)	-0.49
SAMM50 (SAMM50 sorting and assembly machinery component)	-0.5
SAMM50 (SAMM50 sorting and assembly machinery component)	-0.25
GPBP1L1 (GC-rich promoter binding protein 1 like 1)	-0.67
GPBP1L1 (GC-rich promoter binding protein 1 like 1)	-1.37
GPBP1L1 (GC-rich promoter binding protein 1 like 1)	-0.4
GPBP1L1 (GC-rich promoter binding protein 1 like 1)	-0.34
CHRNE (cholinergic receptor nicotinic epsilon subunit)	0.09
CHRNE (cholinergic receptor nicotinic epsilon subunit)	-0.37
CHRNE (cholinergic receptor nicotinic epsilon subunit)	-0.7
CHRNE (cholinergic receptor nicotinic epsilon subunit)	-1.65 (active)
DEFB113 (defensin beta 113)	-1.26
DEFB113 (defensin beta 113)	-0.41
DEFB113 (defensin beta 113)	-0.37
DEFB113 (defensin beta 113)	-0.61
TMEM125 (transmembrane protein 125)	-0.33
TMEM125 (transmembrane protein 125)	1.42
TMEM125 (transmembrane protein 125)	1.08
TMEM125 (transmembrane protein 125)	0.7
ACTN2 (actinin alpha 2)	-0.78
ACTN2 (actinin alpha 2)	-0.43
ACTN2 (actinin alpha 2)	-0.26
ACTN2 (actinin alpha 2)	-0.16
TRIM36 (tripartite motif containing 36)	-0.13
TRIM36 (tripartite motif containing 36)	-0.6
TRIM36 (tripartite motif containing 36)	1.04
TRIM36 (tripartite motif containing 36)	2.23
PPIL4 (peptidylprolyl isomerase like 4)	0.34
PPIL4 (peptidylprolyl isomerase like 4)	0.56
PPIL4 (peptidylprolyl isomerase like 4)	0.51
PPIL4 (peptidylprolyl isomerase like 4)	1.06
HOXC9 (homeobox C9)	2.08
HOXC9 (homeobox C9)	0.57
HOXC9 (homeobox C9)	2.06
HOXC9 (homeobox C9)	2.21
